At least one compound was matched to its structure with a doubt left.
Tests used:
HUVEC cells [1] = assay: Trilostane III tube formation assay in extracellular matrix gel; type: cell-based, Human; conditions: 50 μM, 18 hours
Procedure: 1. […] EGM-2 with 0.1% FCS.
2. Cell suspensions containing 10,000 cells and compounds in both EGM-2 0.1% and 5% FCS were added per well then incubated for 18 hours at 37° C. and 5% CO2.
3. Following incubation, tube formations were photographed under microscope.
Passage 3 HUVEC 8750 cells were used for this experiment at 98% viability by trypan blue exclusion at time of seeding.

HUVEC cells [2] = assay: Danazol BioCoat Matrigel Invasion Chamber; type: cell-based, Human; conditions: 5% FCS in bottom chamber; 24 hours; concentration not stated with the result
Procedure: BioCoat Matrigel Invasion Chambers were purchased from BD Biosciences (San Jose, Calif.). Inserts were rehydrated at 37° C. with 500 μl HBSS for 2 hours prior to use in humidified incubator. Trypsinized HUVEC cells were washed twice with warm EGM-2 containing 0.1% FCS and added to the upper chamber of the invasion insert at 100,000 cells in a total volume of 250 μl. Danazol and control compounds were added to the upper reservoir at final concentrations of 10 μM and 100 μM. 750 μl EGM-2 supplemented with 5% FCS was added to the bottom chamber to initiate invasion and the plates were incubated for 24 hours. Non-invasive cells were removed from the upper chamber with moistened cotton swabs and then the inserts were washed twice with HBSS. The inserts were then submerged in 10 μM calcein AM prepared in HBSS and incubated for 4 hours. Fluorescence was determined in a microplate reader at 485 nm excitation and 595 nm emission.
All data is presented as representative experiment done in triplicate. Differences between subsets were analyzed using student t-test in Microsoft Excel. P<0.05 was considered statistically significant.

[3] = tested on: Human umbilical vein endothelial cells 7016 (HUVEC); assay: Invasion chamber: fetal calf serum induced endothelial cell invasion through matrigel treated inserts (trilostane III); conditions: high dose (50 μM); 5% FCS induced invasion
Procedure: 1. Trypsinized HUVEC cells from flasks grown in Cambrex EGM-2 media to 70-80% confluence were washed two times with 37° C. EGM-2 with 0.1% FCS.
2. Cell suspensions containing 30,000 cells and compounds in EGM-2 0.1% FCS were added to the upper chamber of inserts.
3. EGM-2 containing 5% FCS was added to the bottom chamber and then incubated for 24 hours at 37° C. and 5% CO2.
4. Non-invading cells were removed from the upper chamber with cotton swab and the inserts were washed two times with 37° C. HBSS.
5. Inserts were then placed in wells containing 10 μM Calcein AM in HBSS.
6. Following four hours at 37° C. and 5% CO2, fluorescence was measured at 485 nm excitation and 595 nm emission.
Results are presented as mean fluorescent units (FU) in triplicate (n=3) with background fluorescence subtracted. […] To determine background invasion, nil inserts were included in triplicate that had EGM-2 with 0.1% FCS added to the bottom chamber.

Structure (SMILES): O=c1cc(N2CCOCC2)oc2c(-c3ccccc3)cccc12 [LY294002]
- tube formation (HUVEC cells [1]; in the presence of 5% fetal calf serum): greatly reduced tube formation
- tube formation (HUVEC cells [1]; without added 5% FCS (nil wells, 0.1% FCS)): completely inhibited the development seen in the nil wells
- effect on cell invasion (HUVEC cells [2]): almost complete attenuation of cell invasion
- effect on endothelial cell invasion [3]: exhibited similar inhibition as trilostane

From patent publication US8586568B2, “Methods and products for treatment of diseases” (Ampio Pharmaceuticals, Inc., priority 2005, dated 2013)
